{"source": "PubChem BioAssay AID662", "about": "(National Center for Advancing Translational Sciences (NCATS), 2007)", "note": "The other results are listed elsewhere or left out. Further columns of the screen follow, without active or inactive calls. Most of these compounds were active or inconclusive in the main read-out, so they are no random draw. Words in brackets tell the shape of the fitted curve; partial curves, single points and poor fits give uncertain potencies."}
{"assay": "Cell signaling CRE-BLA (Fsk stim)", "conditions": "CHO CRE-bla reporter (cAMP response element driving beta-lactamase), forskolin EC10, beta-lactamase ratio; measured here: 460 nm blue channel", "summary_of_the_method": "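The 460nm/530nm emission ratio after CCF4 loading defined %Activity, from which AC50 values were obtained. CRE-bla CHO cells received compound dilution series together with an EC10 level of NKH 477 for 3 hours at 37 degrees Celsius.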"}
{"compound": "Cc1nn(Cc2ccccc2)c2c1C(c1ccncc1)C(C#N)=C(N)O2", "note": "(stereo not drawn)", "AC50": "1.26 µM [falling, partial curve]"}
{"compound": "CC(=O)c1ccc(NC(=O)N[C@@H](Cc2ccccc2)C(=O)O)cc1", "AC50": "2.51 µM [falling, full curve]"}
{"compound": "Cc1ccc(Nc2cc(-n3nc(C)cc3C)ncn2)c(C)c1", "AC50": "0.316 µM [falling, full curve]"}
{"compound": "COc1ccc(NC(=O)c2ccco2)cc1NC(=O)c1cc2ccccc2o1", "AC50": "25.1 µM [rising, single point]"}
{"compound": "COc1cc2c(C(=O)N3CCN(Cc4ccc5c(c4)OCO5)CC3)cn(C)c(=O)c2cc1OC", "AC50": "15.8 µM [rising, single point]"}
{"compound": "CCn1c(SCC(=O)Nc2ccc3c(c2)c2ccccc2n3CC)nnc1-c1cnccn1", "AC50": "12.6 µM [rising, partial curve]"}
{"compound": "COC(=O)c1cc(OC)c(OC)cc1NC(=O)c1ccco1", "AC50": "2 µM [rising, partial curve]"}
{"compound": "CCN1CCN(c2ncc3c(n2)CC(c2ccc(OC)c(OC)c2)CC3=O)CC1", "note": "(stereo not drawn)", "AC50": "12.6 µM [rising, single point]"}
{"compound": "Cc1c(Cc2ccccc2)c(=O)oc2c(CN(C)C)c(O)c(Cl)cc12", "AC50": "12.6 µM [rising, partial curve]"}
{"compound": "COc1cc(C2NC(=O)NC(C)=C2C(=O)OCc2ccc(C)cc2)cc(OC)c1O", "note": "(stereo not drawn)", "AC50": "12.6 µM [rising, single point]"}
{"compound": "CCn1ncc(Br)c1C(=O)Nc1sc2c(c1C(N)=O)CCC2", "AC50": "2 µM [rising, full curve]"}
{"compound": "CCOC(=O)/C=C1\\SCC(=O)N1Cc1nnc(-c2ccccc2Br)o1", "AC50": "3.98 µM [falling, single point]"}
{"compound": "Cc1ccc(C)c(C(=O)N(Cc2nc(-c3ccc(Cl)cc3)no2)C(C)C)c1", "AC50": "20 µM [falling, single point]"}
{"compound": "COc1ccc(N2CSC3=C(C#N)C(c4cccc(OC)c4OC)CC(=O)N3C2)cc1", "note": "(stereo not drawn)", "AC50": "5.01 µM [rising, full curve]"}
{"compound": "COc1ccccc1-n1cc(C(=O)NCC(=O)N2CCN(c3ccccn3)CC2)c2ccccc2c1=O", "AC50": "0.00316 µM [falling, full curve, poor fit]"}
{"compound": "COC(=O)C(NC=O)C(O)(Cc1ccccc1)C(F)(F)F", "note": "(stereo not drawn)", "AC50": "0.1 µM [falling, partial curve]"}
{"compound": "COc1ccc(-c2csc(N(CC3CCCO3)C(=O)c3ccco3)n2)cc1", "note": "(stereo not drawn)", "AC50": "2.51 µM [falling, single point]"}
{"compound": "Cc1ccc(-n2c(C)nc3c(cnn3-c3ccc(F)cc3)c2=O)cc1", "AC50": "10 µM [falling, single point]"}
